In EP0315079B1, “Drug carriers” (NIPPON SHINYAKU COMPANY, LIMITED, priority 1987, dated 1989):

Tested on: carrageenin edema
Assay: Carrageenin edema inhibition (Test Example 2-5)
Type: in vivo, SD strain male rats
Details: i.v. 30 min after carrageenin, paw volume 5 hours after carrageenin, converted into Dexamethasone; test sample = Example 4 type carrier
Method: λ-Carrageenin (0.5%, 1 ml) was subcutaneously administered to SD strain male rats (weighing about 160 g) at one paw heel. Thirty minutes after, the test sample, the comparative sample and Dexamethasone phosphate were intravenously administered in the tail vein. For the control group, physiological saline was administered. A volume of the paw was measured prior to the administration of carrageenin and 5 hours after the administration in a conventional manner to determine an edema inhibition ratio.

C[C@@H]1C[C@H]2[C@@H]3CCC4=CC(=O)C=C[C@]4(C)[C@@]3(F)[C@@H](O)C[C@]2(C)[C@@]1(O)C(=O)COP(=O)(O)O [Dexamethasone phosphate]
ED ₅₀ (50% Edema Inhibition Dose): 0.023 mg/kg
